Measurements taken from patent publication US20230181602A1, “TREATMENT OF NON-ALCOHOLIC STEATOHEPATITIS (NASH)” (DURECT CORPORATION, priority 2020, published 2023).
At least one compound was matched to its structure with a doubt left.

Legend:
[1] = Plasma pharmacokinetics after single oral (gavage) dose in rats; assay type: in vivo; settings: 75 mg/kg single oral (gavage) dose
Method: The terminal elimination phase T1/2 was 27.3 hours.

[2] = Tissue distribution by quantitative whole body autoradiography after single oral (gavage) dose; assay type: in vivo, Sprague Dawley rats; settings: 75 mg/kg oral

## C[C@H](CCCC(C)(C)O)[C@H]1CC[C@H]2[C@@H]3CC=C4[14CH2][C@@H](OS(=O)(=O)O)CC[C@]4(C)[C@H]3CC[C@]12C [[4-^14C]-25HC3S]
[1]
  plasma Cmax (radioactivity): 3800 ng equiv./g
[2]
  Cmax in small intestine (wall): 424,000 ng equiv./g
  Cmax in stomach (wall): 204,000 ng equiv./g
  whole blood Cmax: 2850 ng equiv/g
